Our source for the log2 fold change values is the supplement of paper PMC10849652.

By UniProt entry, the sequences of proteins in these tests, tags left out. Where a name states a change or a piece, a line headed by the entry shows the natural chain unless it says otherwise.
UniProt Q13451: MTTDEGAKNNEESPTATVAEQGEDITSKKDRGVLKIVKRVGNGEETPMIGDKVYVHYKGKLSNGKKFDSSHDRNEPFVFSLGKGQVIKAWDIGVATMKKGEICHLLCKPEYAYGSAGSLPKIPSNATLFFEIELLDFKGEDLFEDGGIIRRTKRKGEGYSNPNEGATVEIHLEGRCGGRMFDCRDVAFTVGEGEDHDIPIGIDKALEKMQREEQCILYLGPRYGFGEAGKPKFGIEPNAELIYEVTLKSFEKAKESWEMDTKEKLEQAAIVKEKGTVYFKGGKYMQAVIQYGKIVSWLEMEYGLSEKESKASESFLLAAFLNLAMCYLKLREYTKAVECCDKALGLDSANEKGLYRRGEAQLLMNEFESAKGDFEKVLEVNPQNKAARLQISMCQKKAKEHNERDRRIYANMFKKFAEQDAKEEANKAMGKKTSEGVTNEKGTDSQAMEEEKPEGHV
UniProt Q9NSD9: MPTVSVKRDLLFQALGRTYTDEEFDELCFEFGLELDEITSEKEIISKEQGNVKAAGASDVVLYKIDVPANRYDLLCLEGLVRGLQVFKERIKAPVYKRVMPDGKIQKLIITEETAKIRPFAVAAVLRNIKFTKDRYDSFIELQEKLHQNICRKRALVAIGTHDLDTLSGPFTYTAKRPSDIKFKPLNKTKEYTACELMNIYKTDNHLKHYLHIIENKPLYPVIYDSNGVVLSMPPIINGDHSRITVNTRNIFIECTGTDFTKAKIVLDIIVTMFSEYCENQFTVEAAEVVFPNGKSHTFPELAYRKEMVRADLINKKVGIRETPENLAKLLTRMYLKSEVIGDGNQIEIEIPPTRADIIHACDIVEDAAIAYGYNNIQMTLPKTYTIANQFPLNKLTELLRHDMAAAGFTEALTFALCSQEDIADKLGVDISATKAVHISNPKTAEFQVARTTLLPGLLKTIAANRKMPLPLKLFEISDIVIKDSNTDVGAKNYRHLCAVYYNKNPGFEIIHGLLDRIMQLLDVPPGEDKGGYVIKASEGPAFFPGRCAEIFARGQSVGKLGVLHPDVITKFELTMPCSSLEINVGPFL
UniProt Q9UK73, whole entry, looked up: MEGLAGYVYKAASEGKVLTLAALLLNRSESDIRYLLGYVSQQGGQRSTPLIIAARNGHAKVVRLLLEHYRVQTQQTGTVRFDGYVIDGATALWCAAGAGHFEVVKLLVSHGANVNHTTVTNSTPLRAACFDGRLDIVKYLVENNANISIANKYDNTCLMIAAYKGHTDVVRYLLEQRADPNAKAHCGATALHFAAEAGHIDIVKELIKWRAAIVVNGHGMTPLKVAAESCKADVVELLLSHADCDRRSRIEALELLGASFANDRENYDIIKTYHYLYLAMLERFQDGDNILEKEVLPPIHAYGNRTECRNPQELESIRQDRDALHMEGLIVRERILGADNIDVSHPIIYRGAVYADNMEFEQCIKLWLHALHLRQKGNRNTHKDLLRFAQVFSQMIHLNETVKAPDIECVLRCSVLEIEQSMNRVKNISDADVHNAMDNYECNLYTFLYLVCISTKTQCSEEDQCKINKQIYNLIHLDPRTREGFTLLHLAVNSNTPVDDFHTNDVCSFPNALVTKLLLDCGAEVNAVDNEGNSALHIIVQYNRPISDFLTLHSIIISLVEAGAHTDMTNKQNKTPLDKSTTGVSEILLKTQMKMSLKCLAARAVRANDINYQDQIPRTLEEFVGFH
UniProt Q92913: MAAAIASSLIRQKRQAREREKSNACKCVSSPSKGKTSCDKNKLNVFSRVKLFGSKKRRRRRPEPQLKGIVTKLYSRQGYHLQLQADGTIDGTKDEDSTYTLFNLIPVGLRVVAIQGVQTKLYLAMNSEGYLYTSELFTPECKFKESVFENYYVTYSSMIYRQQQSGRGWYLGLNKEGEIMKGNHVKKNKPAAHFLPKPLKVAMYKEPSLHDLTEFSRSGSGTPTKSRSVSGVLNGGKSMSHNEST
UniProt P10109: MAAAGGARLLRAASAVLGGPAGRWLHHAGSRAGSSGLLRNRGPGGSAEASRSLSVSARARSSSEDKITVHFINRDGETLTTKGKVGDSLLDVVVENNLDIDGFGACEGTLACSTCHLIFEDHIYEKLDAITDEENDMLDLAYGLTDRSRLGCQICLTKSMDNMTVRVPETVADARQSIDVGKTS
UniProt Q9NUQ9: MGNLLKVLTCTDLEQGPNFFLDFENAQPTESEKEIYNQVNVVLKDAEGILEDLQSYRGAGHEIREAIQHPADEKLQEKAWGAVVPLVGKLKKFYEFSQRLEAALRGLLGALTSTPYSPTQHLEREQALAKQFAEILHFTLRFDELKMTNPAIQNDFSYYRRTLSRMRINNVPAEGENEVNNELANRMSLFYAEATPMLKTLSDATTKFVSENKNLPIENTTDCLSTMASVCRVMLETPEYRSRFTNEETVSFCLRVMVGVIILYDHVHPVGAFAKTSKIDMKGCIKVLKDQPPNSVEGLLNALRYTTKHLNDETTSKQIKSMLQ
UniProt P07954: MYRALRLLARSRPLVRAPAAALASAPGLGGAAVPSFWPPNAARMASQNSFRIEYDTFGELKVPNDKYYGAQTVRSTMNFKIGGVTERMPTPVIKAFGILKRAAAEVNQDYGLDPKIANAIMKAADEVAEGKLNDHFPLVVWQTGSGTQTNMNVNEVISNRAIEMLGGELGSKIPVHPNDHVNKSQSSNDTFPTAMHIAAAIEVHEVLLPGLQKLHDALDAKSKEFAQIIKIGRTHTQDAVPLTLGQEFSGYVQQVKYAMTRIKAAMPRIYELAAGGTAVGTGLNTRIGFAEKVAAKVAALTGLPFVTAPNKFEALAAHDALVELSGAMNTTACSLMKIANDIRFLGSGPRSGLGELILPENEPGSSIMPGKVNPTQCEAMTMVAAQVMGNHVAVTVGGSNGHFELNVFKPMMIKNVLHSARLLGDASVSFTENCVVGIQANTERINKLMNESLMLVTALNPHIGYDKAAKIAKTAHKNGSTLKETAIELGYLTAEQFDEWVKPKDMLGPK
UniProt Q13045: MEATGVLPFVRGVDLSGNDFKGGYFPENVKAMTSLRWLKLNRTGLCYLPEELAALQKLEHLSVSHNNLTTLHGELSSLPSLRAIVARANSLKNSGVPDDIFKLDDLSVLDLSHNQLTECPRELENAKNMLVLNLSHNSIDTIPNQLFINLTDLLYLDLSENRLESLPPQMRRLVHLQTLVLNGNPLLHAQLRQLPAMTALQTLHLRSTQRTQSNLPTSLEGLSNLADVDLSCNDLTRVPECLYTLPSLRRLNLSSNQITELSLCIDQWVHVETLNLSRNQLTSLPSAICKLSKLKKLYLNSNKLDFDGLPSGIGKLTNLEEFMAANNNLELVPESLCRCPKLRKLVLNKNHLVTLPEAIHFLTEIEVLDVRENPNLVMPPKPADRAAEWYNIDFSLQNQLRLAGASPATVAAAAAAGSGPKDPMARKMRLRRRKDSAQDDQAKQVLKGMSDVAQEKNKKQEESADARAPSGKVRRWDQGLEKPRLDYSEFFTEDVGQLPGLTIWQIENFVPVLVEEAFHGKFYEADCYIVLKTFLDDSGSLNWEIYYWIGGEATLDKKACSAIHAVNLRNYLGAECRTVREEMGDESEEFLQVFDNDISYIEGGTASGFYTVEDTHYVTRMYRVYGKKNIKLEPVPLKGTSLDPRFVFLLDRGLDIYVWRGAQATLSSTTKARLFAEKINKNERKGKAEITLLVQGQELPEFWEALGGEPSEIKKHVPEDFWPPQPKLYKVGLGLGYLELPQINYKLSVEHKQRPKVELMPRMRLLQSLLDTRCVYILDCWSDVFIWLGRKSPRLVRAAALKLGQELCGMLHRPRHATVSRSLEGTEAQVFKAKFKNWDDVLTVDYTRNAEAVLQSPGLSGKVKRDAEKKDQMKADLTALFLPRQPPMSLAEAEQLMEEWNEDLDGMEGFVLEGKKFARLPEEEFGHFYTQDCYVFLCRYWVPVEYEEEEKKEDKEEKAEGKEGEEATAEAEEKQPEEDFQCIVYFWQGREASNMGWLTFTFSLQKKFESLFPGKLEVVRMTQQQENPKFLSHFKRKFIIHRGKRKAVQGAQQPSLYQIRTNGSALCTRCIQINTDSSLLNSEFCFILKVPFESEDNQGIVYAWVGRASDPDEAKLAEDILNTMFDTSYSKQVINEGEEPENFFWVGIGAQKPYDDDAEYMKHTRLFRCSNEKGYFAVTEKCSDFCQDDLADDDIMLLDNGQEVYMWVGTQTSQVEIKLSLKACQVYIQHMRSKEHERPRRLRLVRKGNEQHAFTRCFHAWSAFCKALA
UniProt P23142: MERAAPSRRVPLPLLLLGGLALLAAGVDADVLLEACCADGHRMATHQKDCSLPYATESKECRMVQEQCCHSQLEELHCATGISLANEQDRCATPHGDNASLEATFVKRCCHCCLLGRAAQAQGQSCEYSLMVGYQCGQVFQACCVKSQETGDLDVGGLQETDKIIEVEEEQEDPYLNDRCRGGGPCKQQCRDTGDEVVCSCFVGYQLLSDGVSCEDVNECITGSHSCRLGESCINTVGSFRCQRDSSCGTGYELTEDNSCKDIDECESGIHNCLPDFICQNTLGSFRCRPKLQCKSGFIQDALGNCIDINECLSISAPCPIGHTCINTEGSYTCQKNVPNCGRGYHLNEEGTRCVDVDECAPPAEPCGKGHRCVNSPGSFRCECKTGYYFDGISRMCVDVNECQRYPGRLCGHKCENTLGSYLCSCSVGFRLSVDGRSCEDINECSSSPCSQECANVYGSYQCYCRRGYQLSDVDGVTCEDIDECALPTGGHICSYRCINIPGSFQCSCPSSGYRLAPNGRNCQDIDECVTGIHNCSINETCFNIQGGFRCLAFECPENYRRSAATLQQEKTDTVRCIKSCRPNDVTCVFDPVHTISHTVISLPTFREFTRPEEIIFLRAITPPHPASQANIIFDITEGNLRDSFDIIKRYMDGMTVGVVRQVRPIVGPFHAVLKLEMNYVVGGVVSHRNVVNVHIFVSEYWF
UniProt Q96IG2: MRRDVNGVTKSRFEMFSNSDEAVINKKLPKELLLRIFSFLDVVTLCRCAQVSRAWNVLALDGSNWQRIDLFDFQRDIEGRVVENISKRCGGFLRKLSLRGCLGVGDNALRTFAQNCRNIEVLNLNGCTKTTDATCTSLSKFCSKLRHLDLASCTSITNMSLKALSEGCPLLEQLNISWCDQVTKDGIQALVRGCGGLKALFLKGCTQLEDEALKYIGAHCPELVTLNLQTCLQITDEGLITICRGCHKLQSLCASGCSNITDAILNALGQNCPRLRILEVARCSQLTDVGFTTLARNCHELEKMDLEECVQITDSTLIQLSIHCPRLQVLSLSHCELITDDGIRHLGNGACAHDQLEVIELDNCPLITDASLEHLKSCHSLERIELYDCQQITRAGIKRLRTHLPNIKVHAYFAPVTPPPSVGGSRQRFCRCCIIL
UniProt Q5T1M5: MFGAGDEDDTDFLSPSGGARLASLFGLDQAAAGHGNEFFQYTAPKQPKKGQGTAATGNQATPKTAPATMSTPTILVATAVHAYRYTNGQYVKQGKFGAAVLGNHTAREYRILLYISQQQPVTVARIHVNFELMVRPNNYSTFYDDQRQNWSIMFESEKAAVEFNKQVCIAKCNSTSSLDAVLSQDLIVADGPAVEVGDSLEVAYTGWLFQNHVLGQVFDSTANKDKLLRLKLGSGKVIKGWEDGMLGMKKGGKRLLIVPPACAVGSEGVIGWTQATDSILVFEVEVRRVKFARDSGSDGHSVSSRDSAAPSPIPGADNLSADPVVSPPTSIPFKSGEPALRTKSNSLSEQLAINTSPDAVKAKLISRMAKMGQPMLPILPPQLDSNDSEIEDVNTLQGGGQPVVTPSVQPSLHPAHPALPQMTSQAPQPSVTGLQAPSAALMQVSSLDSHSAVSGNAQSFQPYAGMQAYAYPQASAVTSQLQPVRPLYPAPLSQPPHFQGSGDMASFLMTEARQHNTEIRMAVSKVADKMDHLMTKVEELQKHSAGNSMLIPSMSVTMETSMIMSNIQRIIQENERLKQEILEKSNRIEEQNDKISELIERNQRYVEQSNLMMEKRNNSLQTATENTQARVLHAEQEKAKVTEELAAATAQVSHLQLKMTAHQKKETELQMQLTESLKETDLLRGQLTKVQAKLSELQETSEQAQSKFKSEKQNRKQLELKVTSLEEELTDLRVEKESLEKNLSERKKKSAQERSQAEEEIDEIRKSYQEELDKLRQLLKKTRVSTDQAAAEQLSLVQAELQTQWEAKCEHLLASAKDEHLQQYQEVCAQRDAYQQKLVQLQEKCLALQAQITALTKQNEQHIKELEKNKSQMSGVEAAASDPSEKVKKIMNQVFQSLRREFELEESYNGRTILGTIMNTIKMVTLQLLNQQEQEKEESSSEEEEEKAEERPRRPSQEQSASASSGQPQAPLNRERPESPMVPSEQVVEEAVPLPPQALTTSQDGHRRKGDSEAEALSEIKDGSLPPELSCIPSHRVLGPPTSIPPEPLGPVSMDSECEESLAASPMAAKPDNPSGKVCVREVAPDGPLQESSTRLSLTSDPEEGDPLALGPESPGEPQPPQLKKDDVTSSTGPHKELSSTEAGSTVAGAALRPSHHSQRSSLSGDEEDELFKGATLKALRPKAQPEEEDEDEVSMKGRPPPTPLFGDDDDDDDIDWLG

The list shows a part of the results.

Compound in this assay: c1cn2cc(-c3ccc4cn[nH]c4c3)nc(Nc3ccc(N4CCOCC4)cc3)c2n1 [entospletinib]
Nature of the assay: log2 fold change, soluble protein after heating vs DMSO (PISA); higher = thermal stabilisation; K562 cells, 10 uM, 30 min; active = over 0.2 and 3.5 SD of the protein, either way, in both replicates (recomputed). An outline of the steps: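 Thermal stability values are relative to control samples and come from duplicates. They are expressed as log2 fold changes. For measurement, K562 cells (2×10^6 cells/mL) received 10 μM compound for 30 min, and aliquots were heated for 3 min over 48°C-58°C, pooled, and extracted at 4°C in PBS with 0.5% NP-40. Soluble protein, the supernatant after 21,000xg for 90 min, was quantified by TMTpro 16plex LC-MS/MS with equalised channel sums.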
Take FKBP5 (UniProt Q13451): the log2 fold change was inactive: 0.081. FCHSD1 (UniProt Q86WN1): the log2 fold change is inactive: -0.126.

For the target FARSB (UniProt Q9NSD9), the log2 fold change is inactive: -0.01. As to FLAD1 (UniProt Q8NFF5), the log2 fold change was inactive: -0.017. As to FN3K (UniProt Q9H479), the log2 fold change is inactive: 0.001. In the case of FBLL1 (UniProt A6NHQ2) it was inactive: -0.005; in that of FAM98A (UniProt Q8NCA5), inactive: 0.099; in that of FEM1B (UniProt Q9UK73), inactive: -0.057. As to FGF13 isoform 3 (UniProt Q92913), the log2 fold change was inactive: 0.001. Turning to FDX1 (UniProt P10109), the log2 fold change was inactive: -0.037. Turning to FGFR1OP (UniProt O95684), the log2 fold change was inactive: 0.016. The figure for FLOT2 (UniProt Q14254) is inactive: 0.113.

FHL3 (UniProt Q13643): the log2 fold change is inactive: 0.033. FBXO5 (UniProt Q9UKT4): the log2 fold change was inactive: -0.025. Take FAU (UniProt P62861): the log2 fold change is inactive: 0.137. As for FAM49B (UniProt Q9NUQ9), the log2 fold change is inactive: 0.023.

Regarding FH (UniProt P07954), the log2 fold change was inactive: 0.078. Take FLII (UniProt Q13045): the log2 fold change was inactive: -0.005.

On to FBLN1 (UniProt P23142), for which the log2 fold change is inactive: 0.178. In the case of FBXL20 (UniProt Q96IG2) it was inactive: -0.029. The figure for FNDC3A (UniProt Q9Y2H6) is inactive: -0.091; for FKBP15 (UniProt Q5T1M5) it is inactive: 0.007; for FCSK isoform 2 (UniProt Q8N0W3) it is inactive: -0.008.
